The values that follow come from article PMC7733509.

Chains of the proteins cited; added tags and fusions are not shown.
UniProt Q5DW34: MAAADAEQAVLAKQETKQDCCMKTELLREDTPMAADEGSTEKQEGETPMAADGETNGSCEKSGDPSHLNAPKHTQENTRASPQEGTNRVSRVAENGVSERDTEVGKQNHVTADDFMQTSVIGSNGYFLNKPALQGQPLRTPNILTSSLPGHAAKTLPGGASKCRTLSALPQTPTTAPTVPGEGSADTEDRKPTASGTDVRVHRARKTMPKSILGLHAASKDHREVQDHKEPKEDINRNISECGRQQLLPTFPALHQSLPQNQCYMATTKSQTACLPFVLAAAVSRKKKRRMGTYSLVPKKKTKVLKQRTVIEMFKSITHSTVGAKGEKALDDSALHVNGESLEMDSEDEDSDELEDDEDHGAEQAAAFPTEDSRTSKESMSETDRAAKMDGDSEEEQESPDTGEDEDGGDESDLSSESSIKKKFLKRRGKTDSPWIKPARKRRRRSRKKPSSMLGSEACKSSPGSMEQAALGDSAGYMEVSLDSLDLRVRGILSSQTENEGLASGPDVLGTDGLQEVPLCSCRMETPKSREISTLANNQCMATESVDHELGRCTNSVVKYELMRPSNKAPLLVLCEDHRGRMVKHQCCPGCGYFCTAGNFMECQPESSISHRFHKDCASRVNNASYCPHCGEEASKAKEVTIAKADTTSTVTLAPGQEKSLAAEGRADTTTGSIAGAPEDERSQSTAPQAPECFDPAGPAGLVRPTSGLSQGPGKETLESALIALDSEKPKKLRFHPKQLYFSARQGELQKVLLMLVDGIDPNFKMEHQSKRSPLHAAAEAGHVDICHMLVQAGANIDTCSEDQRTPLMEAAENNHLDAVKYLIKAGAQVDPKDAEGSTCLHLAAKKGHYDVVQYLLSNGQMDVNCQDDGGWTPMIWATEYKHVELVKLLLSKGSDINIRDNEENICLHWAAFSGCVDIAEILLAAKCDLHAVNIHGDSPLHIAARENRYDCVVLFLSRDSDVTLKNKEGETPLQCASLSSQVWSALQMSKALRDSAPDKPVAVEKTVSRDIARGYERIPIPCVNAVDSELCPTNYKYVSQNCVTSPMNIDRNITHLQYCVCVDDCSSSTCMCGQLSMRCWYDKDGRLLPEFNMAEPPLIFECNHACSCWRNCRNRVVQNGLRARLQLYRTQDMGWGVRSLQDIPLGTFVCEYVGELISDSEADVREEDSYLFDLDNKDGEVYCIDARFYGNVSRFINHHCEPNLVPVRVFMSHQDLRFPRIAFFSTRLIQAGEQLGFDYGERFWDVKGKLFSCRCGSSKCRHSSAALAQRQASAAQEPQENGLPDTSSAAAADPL
UniProt P70351: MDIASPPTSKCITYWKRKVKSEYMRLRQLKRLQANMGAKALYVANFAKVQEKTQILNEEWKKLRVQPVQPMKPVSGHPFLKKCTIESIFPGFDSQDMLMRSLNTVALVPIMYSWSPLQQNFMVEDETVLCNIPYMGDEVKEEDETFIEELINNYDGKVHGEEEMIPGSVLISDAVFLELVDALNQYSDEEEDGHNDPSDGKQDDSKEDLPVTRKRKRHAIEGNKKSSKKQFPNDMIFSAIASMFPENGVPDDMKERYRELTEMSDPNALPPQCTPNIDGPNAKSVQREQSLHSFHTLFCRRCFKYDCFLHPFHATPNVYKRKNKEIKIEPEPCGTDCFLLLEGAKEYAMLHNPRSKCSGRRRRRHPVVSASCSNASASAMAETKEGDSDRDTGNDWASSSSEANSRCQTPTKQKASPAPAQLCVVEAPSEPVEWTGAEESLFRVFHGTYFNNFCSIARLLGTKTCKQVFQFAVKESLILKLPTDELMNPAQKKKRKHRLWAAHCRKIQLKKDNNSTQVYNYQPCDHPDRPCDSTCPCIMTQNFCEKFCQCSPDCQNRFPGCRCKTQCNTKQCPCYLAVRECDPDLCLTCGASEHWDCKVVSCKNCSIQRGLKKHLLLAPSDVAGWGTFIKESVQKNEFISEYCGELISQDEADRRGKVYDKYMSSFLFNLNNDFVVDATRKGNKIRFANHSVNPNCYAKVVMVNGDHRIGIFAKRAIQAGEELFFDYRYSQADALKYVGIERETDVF
UniProt Q61188: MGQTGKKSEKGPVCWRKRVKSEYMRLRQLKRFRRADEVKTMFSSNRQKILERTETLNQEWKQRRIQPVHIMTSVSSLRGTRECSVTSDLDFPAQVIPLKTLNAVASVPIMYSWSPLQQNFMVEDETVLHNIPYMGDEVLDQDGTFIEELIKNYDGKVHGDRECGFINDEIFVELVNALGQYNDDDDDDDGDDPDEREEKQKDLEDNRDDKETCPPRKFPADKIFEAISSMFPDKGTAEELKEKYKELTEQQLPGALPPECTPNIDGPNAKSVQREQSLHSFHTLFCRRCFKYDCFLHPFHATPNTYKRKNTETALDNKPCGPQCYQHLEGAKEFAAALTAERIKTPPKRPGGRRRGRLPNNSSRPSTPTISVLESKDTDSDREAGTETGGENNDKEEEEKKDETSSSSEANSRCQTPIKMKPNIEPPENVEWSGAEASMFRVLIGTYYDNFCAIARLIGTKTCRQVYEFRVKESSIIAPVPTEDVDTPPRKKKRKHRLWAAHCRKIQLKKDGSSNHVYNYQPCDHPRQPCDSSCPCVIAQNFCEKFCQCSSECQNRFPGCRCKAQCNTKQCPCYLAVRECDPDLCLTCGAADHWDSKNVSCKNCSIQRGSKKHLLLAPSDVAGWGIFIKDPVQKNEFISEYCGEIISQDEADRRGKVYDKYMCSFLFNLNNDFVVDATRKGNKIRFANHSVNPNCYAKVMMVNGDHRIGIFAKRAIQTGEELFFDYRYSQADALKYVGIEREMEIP

These are yes or no findings as the source states them, for the method shown. Binding seen in cells or lysates may run through a third protein. Some results given as binding are weak or reduced against the parent protein; the word gives no strength.

This assay concerns the target EHMT1-HA (mouse) (UniProt Q5DW34). Nature of the assay: co-IP; EHMT1-HA co-transfected into HEK293T cells with EZH1-Myc, EZH2-Myc or Myc-Vector; anti-HA used to precipitate EHMT1 and associated proteins; immunoblot.

Regarding EZH1-Myc (from UniProt P70351 1-747), the binding entry was “binds”. The entry for EZH2-Myc (from UniProt Q61188 1-746) is “binds”.
